Columns and labels:
Assay type in all cases: cell-based, human
[1] = system: HL-60; assay: MTT cell viability assay, HL-60; conditions: for SI Lymphocyte/ HL-60: 48 hours, MTT; for SI GM16000/ HL-60: 72 h, ratio of CC50 values
Description: (§1) The cytotoxic activity of compounds 3–13 was determined based on an MTT assay against different human tumor cell lines, using LASSBio-1586 (2), LASSBio-1735 (3), CA-4 (1) and pelitinib as standards (Table 2). To determine the cytotoxic selectivity index, compounds were also evaluated toward human lymphocytes (Table 3).
(§2) The target compounds were tested (0.0001–100 µM) for cytotoxic activity against selected human cancer cell lines, such as HL-60 (acute promyelocytic leukemia), MCF-7 (mammary adenocarcinoma), PC-3 (prostate adenocarcinoma), H1975 (non-small cell lung cancer—EGFR^L858R+T790M), PC-9 (non-small cell lung cancer—EGFR^L858R) H292 (mucoepidermoid pulmonary carcinoma—EGFR wild type), LoVo (colorectal adenocarcinoma—EGFRwild type) and GM16000 (lymphocyte). All the human cancer cell lines were purchased from Cell Bank of Rio de Janeiro—BCRJ. They were cultured in RPMI 1640 medium with 10% (v/v) FBS, 2 mM glutamine, at 37 °C in a humidified incubator containing 5% CO2.
(§3) The cytotoxicity of the compounds was evaluated by the MTT assay. […] For lymphocytic lines, a density of 0.3 × 10^6 cells/mL was used. Afterwards they were treated with varying concentrations of the target compounds 2–12 (0.0001–100 µM), CA-4 (1) and pelitinib at 37 °C, in triplicate. The medium was incubated with 20 μL of 5 mg/mL MTT solution for 3 h in a humidified incubator containing 5% CO2 [11].
(§4) The purple-colored formazan crystals formed in the wells were dissolved in DMSO and their absorbance was measured at 595 nm with a microplate reader (SpectraMax M5, Molecular Devices).

[2] = system: H1975; assay: MTT cell viability assay, H1975; conditions: for SI Lymphocyte/ H1975: 48 hours, MTT; for SI GM16000/ H1975: 72 h, ratio of CC50 values
Description: as §1, §2, §3, §4

[3] = system: H292; assay: MTT cell viability assay, H292; conditions: for SI Lymphocyte/ H292: 48 hours, MTT; for SI GM16000/ H292: 72 h, ratio of CC50 values
Description: as §1, §2, §3, §4

[4] = system: LoVo; assay: MTT cell viability assay, LoVo; conditions: for SI Lymphocyte/ LoVo: 48 hours, MTT; for SI GM16000/ LoVo: 72 h, ratio of CC50 values
Description: as §1, §2
(§5) The cytotoxicity of the compounds was evaluated by the MTT assay. The cell lines were cultured in 96 well plates for 72 h with a density of 0.1 × 10^5 cells/mL to 0.7 × 10^5 cells/mL to adherent cell lines. For lymphocytic lines, a density of 0.3 × 10^6 cells/mL was used. Afterwards they were treated with varying concentrations of the target compounds 2–12 (0.0001–100 µM), CA-4 (1) and pelitinib at 37 °C, in triplicate. The medium was incubated with 20 μL of 5 mg/mL MTT solution for 3 h in a humidified incubator containing 5% CO2 [11].
as §4

[5] = system: MCF-7; assay: MTT cell viability assay, MCF-7; conditions: for SI GM16000/ MCF-7: 72 h, ratio of CC50 values
Description: as §1, §2, §5, §4

[6] = system: PC-3; assay: MTT cell viability assay, PC-3; conditions: 72 h; ratio of CC50 values
Description: as §1, §2, §5, §4

[7] = system: PC-9; assay: MTT cell viability assay, PC-9; conditions: for SI Lymphocyte/ PC-9: 48 hours, MTT; for SI GM16000/ PC-9: 72 h, ratio of CC50 values
Description: as §1, §2, §3, §4

SMILES	SI Lymphocyte/ HL-60 [1]	SI GM16000/ HL-60 [1]	SI Lymphocyte/ H1975 [2]	SI GM16000/ H1975 [2]	SI Lymphocyte/ H292 [3]	SI GM16000/ H292 [3]	SI Lymphocyte/ LoVo [4]	SI GM16000/ LoVo [4]	SI GM16000/ MCF-7 [5]	SI GM16000/ PC-3 [6]	SI Lymphocyte/ PC-9 [7]	SI GM16000/ PC-9 [7]	times more potent on MCF-7 than CA-4 (1) ([5]; MTT 72 h, ratio of CC50)	times more potent on MCF-7 than LASSBio-1586 ([5]; MTT 72 h, ratio of CC50)
C=CCN(/N=C/c1ccccc1)C(=O)c1cc(OC)c(OC)c(OC)c1 [LASSBio-2069 (8), (E)-N-allyl-N’-benzylidene-3,4,5-trimethoxybenzohydrazide]	2.3	0.6	0.72	0.2	7.7	1.0	1.5	2.8	0.5	1.8	4.3	2.1		
CCCCN(/N=C/c1ccccc1)C(=O)c1cc(OC)c(OC)c(OC)c1 [LASSBio-2121 (6), (E)-N’-benzylidene-N-butyl-3,4,5-trimethoxybenzohydrazide]	0.42	0.4	0.64	0.3	5.0	0.1	0.54	2.0	1.9	1.4	3.35	10.0		
COc1ccc(/C=C\c2cc(OC)c(OC)c(OC)c2)cc1O [CA-4 (1), Combretastatin A-4, reference compound]		0.8	0.3	1.8	0.2	4.5	0.1	1.6	0.007	0.7	0.6	6.4		
COc1cc(C(=O)N(Cc2ccccc2)/N=C/c2ccccc2)cc(OC)c1OC [LASSBio-2070 (10), (E)-N-benzyl-N’-benzylidene-3,4,5-trimethoxybenzohydrazide]	0.62	6.0	3.5	0.4		1.2	1.2	5.0	0.6	2.9		3.1		
CCOC(=O)CN(/N=C/c1ccccc1)C(=O)c1cc(OC)c(OC)c(OC)c1 [LASSBio-2074 (11), Ethyl (E)-N-(benzylideneamino)-N-(3,4,5-trimethoxybenzoyl)glycinate]	0.44	33.3	0.52	3.5	4.25	5.6	1.0	39.5	4.8	3.0	1.8	20.8		
COc1cc(C(=O)N(CCN2CCOCC2)/N=C/c2ccccc2)cc(OC)c1OC [LASSBio-2122 (12), (E)-N’-benzylidene-3,4,5-trimethoxy-N-(2-morpholinoethyl)benzohydrazide]	0.18	1.4	0.14	2.3	2.3	2.0	0.9	13.4	1.4	2.3	0.6	6.5		
COc1cc(C(=O)N(C)/N=C/c2ccccc2)cc(OC)c1OC [LASSBio-1735 (3), (E)-N’-benzylidene-3,4,5-trimethoxy-N-methylbenzohydrazide]	0.09	3.4	7.95	1.7	5.0	0.5	1.6	0.9	0.5	0.6	0.6	1.4	31 times	27 times

Reference: article PMC9394307, “Discovery of Putative Dual Inhibitor of Tubulin and EGFR by Phenotypic Approach on LASSBio-1586 Homologs” (Pharmaceuticals, 2022)
